{
  "source": "patent US20060025326A1",
  "about": "“Method for treating carrier particles and its use” (LAB Pharma Oy, priority 2002, published 2006)",
  "assay": "Microcalorimetric study of amorphous material",
  "assay_type": "physicochemical",
  "conditions": "microcalorimetric study / detected in this work",
  "data": [
    {"smiles": "COc1ccc(CC(C)NCC(O)c2ccc(O)c(NC=O)c2)cc1", "note": "(stereo not shown) [formoterol]", "values": [
      {"measurement": "amorphous (unstable) material", "result": "contains percents of amorphous material"}
    ]}
  ]
}
